Experimental data published in article PMC11224344.
These are yes or no findings as the source states them, for the method shown. Binding seen in cells or lysates may run through a third protein. Some entries that bind do so weakly or less than the wild type.

Sequences of proteins named here, by UniProt entry; tags and fusion partners are left off. A change or cut given only in a name is not applied to a line headed by its entry.
UniProt Q9GZQ6: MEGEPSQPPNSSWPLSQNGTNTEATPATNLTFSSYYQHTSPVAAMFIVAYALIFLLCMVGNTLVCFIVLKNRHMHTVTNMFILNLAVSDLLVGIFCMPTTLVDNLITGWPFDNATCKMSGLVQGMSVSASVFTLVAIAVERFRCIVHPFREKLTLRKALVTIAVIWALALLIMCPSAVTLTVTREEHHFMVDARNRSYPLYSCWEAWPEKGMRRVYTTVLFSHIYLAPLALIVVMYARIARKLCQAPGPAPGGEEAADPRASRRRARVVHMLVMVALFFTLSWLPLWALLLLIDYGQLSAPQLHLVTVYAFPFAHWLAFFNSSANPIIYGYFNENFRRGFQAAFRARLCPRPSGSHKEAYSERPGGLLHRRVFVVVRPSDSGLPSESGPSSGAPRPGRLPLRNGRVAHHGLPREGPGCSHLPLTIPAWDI
UniProt Q9Y5X5: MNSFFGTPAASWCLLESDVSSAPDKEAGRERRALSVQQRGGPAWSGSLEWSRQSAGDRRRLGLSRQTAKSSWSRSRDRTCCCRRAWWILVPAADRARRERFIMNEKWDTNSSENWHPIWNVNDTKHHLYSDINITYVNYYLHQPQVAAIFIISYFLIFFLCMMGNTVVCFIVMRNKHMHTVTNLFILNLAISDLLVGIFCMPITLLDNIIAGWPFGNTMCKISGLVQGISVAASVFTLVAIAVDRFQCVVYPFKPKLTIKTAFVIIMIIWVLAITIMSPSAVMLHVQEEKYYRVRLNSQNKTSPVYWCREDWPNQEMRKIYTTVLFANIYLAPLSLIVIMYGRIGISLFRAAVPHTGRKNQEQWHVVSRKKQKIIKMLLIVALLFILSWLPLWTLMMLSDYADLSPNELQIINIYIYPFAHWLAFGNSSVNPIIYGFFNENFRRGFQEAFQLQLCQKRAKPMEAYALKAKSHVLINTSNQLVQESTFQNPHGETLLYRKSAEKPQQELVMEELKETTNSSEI
UniProt P21728: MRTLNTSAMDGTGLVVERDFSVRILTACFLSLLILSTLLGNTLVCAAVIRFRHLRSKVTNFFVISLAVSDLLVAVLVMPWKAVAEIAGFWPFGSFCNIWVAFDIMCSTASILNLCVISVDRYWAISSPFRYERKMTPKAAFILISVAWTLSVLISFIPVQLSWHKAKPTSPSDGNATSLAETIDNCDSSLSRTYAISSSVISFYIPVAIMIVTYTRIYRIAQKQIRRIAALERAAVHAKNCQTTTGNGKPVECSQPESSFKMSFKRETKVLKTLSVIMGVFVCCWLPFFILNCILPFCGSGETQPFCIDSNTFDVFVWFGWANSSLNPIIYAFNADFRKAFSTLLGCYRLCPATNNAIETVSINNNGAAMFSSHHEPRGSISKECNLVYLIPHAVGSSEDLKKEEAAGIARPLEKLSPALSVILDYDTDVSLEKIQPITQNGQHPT
UniProt P21918: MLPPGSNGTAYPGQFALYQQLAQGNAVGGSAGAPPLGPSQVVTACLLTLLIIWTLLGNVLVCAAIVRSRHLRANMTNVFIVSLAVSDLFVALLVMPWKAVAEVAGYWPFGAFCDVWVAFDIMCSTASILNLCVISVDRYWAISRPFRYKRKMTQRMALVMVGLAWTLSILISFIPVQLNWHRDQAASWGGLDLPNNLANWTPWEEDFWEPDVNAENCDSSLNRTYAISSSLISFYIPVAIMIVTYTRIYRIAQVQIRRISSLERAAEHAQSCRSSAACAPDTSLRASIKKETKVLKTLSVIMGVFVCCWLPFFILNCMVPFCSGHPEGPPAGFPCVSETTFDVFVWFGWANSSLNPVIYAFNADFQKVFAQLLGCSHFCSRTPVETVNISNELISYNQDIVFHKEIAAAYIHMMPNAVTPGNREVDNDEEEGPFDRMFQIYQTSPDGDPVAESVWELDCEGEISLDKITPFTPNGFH

How the values were obtained:
[1] = biological target: Neuropeptide FF receptor NPFF-R1 (human (endogenous in hRPTCs)) (UniProt Q9GZQ6); experiment: co-IP; hRPTC lysates immunoprecipitated with anti-NPFF-R1 or anti-NPFF-R2 antibodies coupled to Dynabeads, 4 h at 4 °C; eluted, SDS-PAGE, immunoblotted with anti-D1R or anti-D5R; normal IgG as negative control; lysis buffer 20 mM Tris-HCl pH 8.0, 1 mM EDTA, 1 mM NaN3, 2 mM DTT, 0.25 M sucrose
[2] = biological target: Neuropeptide FF receptor NPFF-R2 (human (endogenous in hRPTCs)) (UniProt Q9Y5X5); experiment: as above
[3] = biological target: Neuropeptide FF receptor NPFF-R1 (human (endogenous in hRPTCs)) (UniProt Q9GZQ6); experiment: co-IP; unpublished observation, in hRPTCs; no details given
[4] = biological target: Neuropeptide FF receptor NPFF-R2 (human (endogenous in hRPTCs)) (UniProt Q9Y5X5); experiment: as above

| binding [1] | binding [2] | binding [3] | binding [4] | Substance |
| --- | --- | --- | --- | --- |
| binds | binds | – | – | Dopamine D1 receptor (D1R) (from UniProt P21728 1-446) |
| binds | no binding | – | – | Dopamine D5 receptor (D5R) (from UniProt P21918 1-477) |
| – | – | binds | binds | angiotensin type I receptor (from UniProt P30556 1-359) |
